Earlier results in patent US20240287066A1, “Crystalline Form of Sotorasib” (Sandoz AG, priority 2021, published 2024).
Some entries share one result that the patent states for a list of compounds.

Details: GMS, disclosure of WO 2020/236947 A1; cited from earlier work

In the case of `C=CC(=O)N1CCN(c2nc(=O)n(-c3c(C)ccnc3C(C)C)c3nc(-c4c(O)cccc4F)c(F)cc23)[C@@H](C)C1` [Form II of WO 2020/236947 A1, 6-fluoro-7-(2-fluoro-6-hydroxyphenyl)-1-(4-methyl-2-(2-propanyl)-3-pyridinyl)-4-((2S)-2-methyl-4-(2-propenoyl)-1-piperazinyl)pyrido[2,3-d]pyrimidin-2(1H)-one], the “water taken up in the range of 0-90% RH at 25° C.” value is given as “above 2 w-%”.
